# Results as given in PMC4234293, “Galactosyltransferases from Arabidopsis thaliana in the biosynthesis of type II arabinogalactan: molecular interaction enhances enzyme activity” (BMC Plant Biology, 2014).
# Results are given in words; binding and its absence hold for the method and conditions named. Binding seen in cells or lysates may run through a third protein. Some results given as binding are weak or reduced against the parent protein; the word gives no strength. Tags and fused reporters may be left off the sequences shown.
# Target: T1, HA-AtGALT29A (full-length At1g08280 with N-terminal HA tag) (Arabidopsis thaliana) (UniProt Q9SGD2)
# T1 sequence: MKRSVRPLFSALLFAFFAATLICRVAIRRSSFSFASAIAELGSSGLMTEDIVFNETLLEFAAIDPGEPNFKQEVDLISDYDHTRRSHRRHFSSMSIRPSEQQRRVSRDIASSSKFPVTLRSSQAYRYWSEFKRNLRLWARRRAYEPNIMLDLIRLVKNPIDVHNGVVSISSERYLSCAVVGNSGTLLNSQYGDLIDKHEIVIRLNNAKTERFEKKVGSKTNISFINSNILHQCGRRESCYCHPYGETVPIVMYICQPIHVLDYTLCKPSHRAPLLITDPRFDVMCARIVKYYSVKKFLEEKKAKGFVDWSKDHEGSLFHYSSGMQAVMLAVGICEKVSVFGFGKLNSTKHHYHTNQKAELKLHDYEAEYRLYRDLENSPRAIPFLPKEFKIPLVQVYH
# Experiment: co-IP; detergent-treated (5 mM n-dodecyl beta-maltoside) microsomes of N. benthamiana co-expressing both proteins; anti-HA agarose overnight at 4°C, washed in PBS; Western blot with anti-GFP
binder,measurement,value
"AtGALT31A-GFP (AtGALT31A, At1g32930, as a C-terminal GFP fusion protein) (enzyme, UniProt Q9MAP8 1-399) MGMGRYQKSATSGVSARWVFVLCISSFLLGVLVVNRLLASFETVDGIERASPEQNDQSRSLNPLVDCESKEGDILSRVSHTHDVIKTLDKTISSLEVELATARAARSDGRDGSPAVAKTVADQSKIRPRMFFVMGIMTAFSSRKRRDSIRGTWLPKGDELKRLETEKGIIMRFVIGHSSSPGGVLDHTIEAEEEQHKDFFRLNHIEGYHELSSKTQIYFSSAVAKWDADFYIKVDDDVHVNLGMLGSTLARHRSKPRVYIGCMKSGPVLAQKGVKYHEPEYWKFGEEGNKYFRHATGQIYAISKDLATYISVNRQLLHKYANEDVSLGSWFIGLDVEHIDDRSLCCGTPLDCEWKGQAGNPCAASFDWSCSGICKSVDRMLEVHQRCGEGDGAIWHSSF",binding,binds
